Test results taken from PMC9505254 (Pathogens, 2022).

Test system: type-A human erythrocytes

## O=C(O)c1cn(C2CC2)c2cc(N3CCNCC3)c(F)cc2c1=O [Ciprofloxacin]
  % Hemolysis Type-A Blood: 0%
